## Results from one PubChem assay

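SH-SY5Y cells carrying a GLuc-SERCaMP reporter are challenged with thapsigargin, and luminescence from the secreted luciferase is read, with one incubation step lasting 4 hours.
Compounds were run as a dilution series spanning about 2.6e-05 to 200 µM, mostly topping out at 38.4 µM.
The number is the fitted AC50 for inhibition of the reporter signal; a lower value means a more potent compound.
Calls come from curve class and activity score: actives score 40 to 100, inconclusives 1 to 39, and inactives (curve class 4) score 0.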

Values are in nM.
All entries here are filed as inconclusive.
Only part of the assay is shown, chiefly results filed as inconclusive.
A potency from a partial, single-point or poor curve is only a rough figure.
Some entries filed as inconclusive have a full curve.
Activity scores are not listed here.

compound,fitted potency (nM),remark
NC(=O)CC[C@H](N)C(=O)O,11220,"inhibitor, single point"
C[C@H]1C(O)[C@@]23CCC4C5(C=[N+](CCO)C[C@]4(C)CCC5)C2C[C@@H]1C3 (some centres unmarked),11220,"inhibitor, full curve"
CS(=O)(=O)Nc1cccc(-c2nc(Nc3ccccc3)c3ccccc3n2)c1,28183,"inhibitor, single point"
CCCCCCC(C)(C)c1ccc([C@@H]2C[C@H](O)CC[C@@H]2CCCO)c(O)c1,28183,"inhibitor, single point"
CN(C)[C@@H](CCOc1cccc2ccccc12)c1ccccc1,28183,"inhibitor, single point"
Cc1noc(C)c1-c1cncnc1N1CCN(C)CC1,35481,"inhibitor, partial curve"
COc1ccc(-c2nc3cnc(N4CCN(C)CC4)nc3n(Cc3cccc(OC)c3)c2=O)cc1,10000,"inhibitor, partial curve, poor fit"
COc1cccc2c1[C@@H]1CN(CCCCn3c(=O)[nH]c4c(sc5ncc(-c6ccccc6)nc54)c3=O)C[C@@H]1CO2,12589,"inhibitor, partial curve, poor fit"
N#CCCn1c(=O)c(-c2cccc(C#N)c2)nc2cnc(Oc3ccccc3)nc21,31622,"inhibitor, partial curve, poor fit"
Nc1cc(C(F)(F)F)ccc1S,31622,"inhibitor, partial curve, poor fit"
CN(C)C(=O)c1ccc(-c2nc(Nc3ccc(F)cc3)c3ccccc3n2)cc1,28183,"inhibitor, single point"
N#CCCn1c(=O)c(-c2ccc(Cl)cc2)nc2cnc(OCc3ccccc3)nc21,2818,"inhibitor, full curve, poor fit"
COP(=O)(OC)OC(c1ccc(Cl)cc1)P(=O)(OC)OC (centres unmarked),11220,"inhibitor, partial curve, poor fit"
C[C@@H]([C@H](O)c1ccc(O)cc1)N1CCC(Cc2ccccc2)CC1,10000,"inhibitor, partial curve, poor fit"
CCNc1ncc2nc(CCc3ccccc3)c(=O)n(CCOC)c2n1,22387,"inhibitor, partial curve, poor fit"
CC(C)[C@@]1(NC(=O)[C@@H]2C[C@H]3c4cccc5[nH]cc(c45)C[C@@H]3N(C)C2)O[C@@]2(O)[C@H]3CCCN3C(=O)[C@H](Cc3ccccc3)N2C1=O,8912,"inhibitor, partial curve, poor fit"
O=C(c1cc(C(F)(F)F)cc(C(F)(F)F)c1)N1CCC2(CC1)CCN(c1ccccn1)CC2,10000,"inhibitor, partial curve, poor fit"
N[C@@H](Cn1ccc(=O)[nH]c1=O)C(=O)O,3548,"inhibitor, full curve, poor fit"
CS(=O)(=O)CCNCc1nc(-c2ccc3ncnc(Nc4ccc(OCc5cccc(F)c5)c(Cl)c4)c3c2)cs1,6310,"inhibitor, partial curve, poor fit"
O=C1NN(C(=O)Nc2ccc(Br)cc2)C(c2ccccc2)C1c1ccccc1 (centres unmarked),10000,"inhibitor, partial curve, poor fit"
Cc1cc(O)c2c(c1)C(=O)c1cc(O)cc(O)c1C2=O,4727,"inhibitor, partial curve"
O=C1c2ccccc2C(Cc2ccncc2)(Cc2ccncc2)c2ccccc21,25118,"inhibitor, single point"
Cc1nc2cnc(N3CCN(C)CC3)nc2n(C2CC2)c1=O,31622,"inhibitor, single point"
CN1CCN(c2ncc3nc(-c4cccs4)c(=O)n(-c4ccccc4)c3n2)CC1,8912,"inhibitor, partial curve, poor fit"
Cc1c[nH]c(=O)n(CCCN2CCN(c3ccccc3OCC(F)(F)F)CC2)c1=O,28183,"inhibitor, single point"
COc1ccc(Oc2ncc3nc(CCc4ccccc4)c(=O)n(C)c3n2)cc1,31622,"inhibitor, partial curve, poor fit"
Cc1c2ccncc2c(C)c2c1[nH]c1ccccc12,28183,"inhibitor, single point"
Cn1c(=O)c(CCc2ccccc2)nc2cnc(OCc3ccccc3)nc21,10000,"inhibitor, partial curve, poor fit"
O=C1c2ccccc2CCc2ccccc21,8912,"inhibitor, partial curve, poor fit"
CN1CCc2ccccc2Cc2[nH]c3ccccc3c2CC1,11220,"inhibitor, single point"
COc1ccc(C(=O)N2CCN(CC(=O)N3CCOCC3)CC2)cc1,10000,"inhibitor, partial curve, poor fit"
C=CCN1C[C@H](C)N([C@H](c2ccc(C(=O)N(CC)CC)cc2)c2cccc(O)c2)C[C@H]1C,10000,"inhibitor, partial curve, poor fit"
CCCN(CCC)CCc1ccc(O)c(O)c1,2239,"inhibitor, full curve, poor fit"
Oc1cc(O)cc(/C=C/c2ccc(O)c(O)c2)c1,25118,"inhibitor, full curve"
CCCC(O)C(CC)CO (centres unmarked),31622,"inhibitor, partial curve, poor fit"
COc1cccc(-c2nc(N3CCN(C)CC3)c3ccccc3n2)c1,7943,"inhibitor, partial curve, poor fit"
CN1CCN(c2ncc3nc(-c4cn(C)c5ccccc45)c(=O)n(C)c3n2)CC1,5623,"inhibitor, partial curve, poor fit"
c1cc(CN2CCC3(CCNCC3)CC2)ccn1,2239,"inhibitor, full curve"
Nc1nc(Nc2ccccc2)nc2c1ncn2[C@@H]1O[C@@H](CO)[C@H](O)[C@H]1O,10000,"inhibitor, single point"
COc1ccc(C(=O)N2CCC3(CCCN(C(=O)Nc4cccc(C#N)c4)C3)CC2)cc1,28183,"inhibitor, single point"
CC[C@H](Oc1ccc(Cl)cc1)C(=O)OC1C[C@H]2CC[C@@H](C1)N2C (some centres unmarked),10000,"inhibitor, partial curve, poor fit"
COc1ccc(-n2c(=O)c(-c3ccccc3)nc3cnc(N4CCNCC4)nc32)cc1,11220,"inhibitor, partial curve, poor fit"
C[C@@](N)(C(=O)O)c1ccc(C(=O)O)cc1,35481,"inhibitor, partial curve"
c1ncc(CCCC2CCNCC2)[nH]1,10000,"inhibitor, partial curve, poor fit"

From PubChem BioAssay record AID1508630 (NCATS, 2021).